Results published in patent US6750239B2, “Pyrazole-derived kinase inhibitors and uses thereof” (Vertex Pharmaceuticals Incorporated, priority 2001, dated 2004).
Some of these results come from one statement about several compounds together.

The compounds below were run against AKT (assay: AKT inhibition coupled enzyme assay). Conditions: 45 nM AKT, 170 μM ATP, 30° C.
Format: biochemical

Compound | IC50
CCC(=O)CNCc1ccc(-c2cn[nH]c2-c2c[nH]c(C(=O)N[C@H](CO)c3ccc(F)c(Cl)c3)c2)cc1Cl [II-53] | < 12 µM
CC(=O)N[C@H](C)C(=O)NCc1ccc(-c2cn[nH]c2-c2c[nH]c(C(=O)NC(CO)c3ccc(F)c(Cl)c3)c2)cc1Cl (stereo partly drawn) [II-11] | < 12 µM
CCCCNCc1ccc(-c2cn[nH]c2-c2c[nH]c(C(=O)N[C@H](CO)c3ccc(F)c(Cl)c3)c2)cc1Cl [II-22] | < 12 µM
CC(CC(=O)N(C)C)NCc1ccc(-c2cn[nH]c2-c2c[nH]c(C(=O)N[C@H](CO)c3ccc(F)c(Cl)c3)c2)cc1Cl (stereo partly drawn) [II-52] | < 12 µM
CCN(CC)C(=O)CNCc1ccc(-c2cn[nH]c2-c2c[nH]c(C(=O)N[C@H](CO)c3ccc(F)c(Cl)c3)c2)cc1Cl [II-80] | < 12 µM
CC(C)N(C)Cc1ccc(-c2cn[nH]c2-c2c[nH]c(C(=O)N[C@H](CO)c3ccc(F)c(Cl)c3)c2)cc1Cl [II-54] | < 12 µM
NCCNCc1ccc(-c2cn[nH]c2-c2c[nH]c(C(=O)N[C@H](CO)c3ccc(F)c(Cl)c3)c2)cc1Cl [II-68] | < 12 µM
N[C@H](CO)C(=O)NCc1ccc(-c2cn[nH]c2-c2c[nH]c(C(=O)N[C@H](CO)c3ccc(F)c(Cl)c3)c2)cc1Cl [II-56] | < 12 µM
CN[C@@H](CO)C(=O)NCc1ccc(-c2cn[nH]c2-c2c[nH]c(C(=O)N[C@H](CO)c3ccc(F)c(Cl)c3)c2)cc1Cl [II-67] | < 12 µM
CCN(CC)C(=O)CN(CC(=O)N(CC)CC)Cc1ccc(-c2cn[nH]c2-c2c[nH]c(C(=O)N[C@H](CO)c3ccc(F)c(Cl)c3)c2)cc1Cl [II-86] | < 12 µM
O=C(O)CNCc1ccc(-c2cn[nH]c2-c2c[nH]c(C(=O)N[C@H](CO)c3ccc(F)c(Cl)c3)c2)cc1Cl [II-81] | < 12 µM
CCC(=O)CN(CC(=O)CC)Cc1ccc(-c2cn[nH]c2-c2c[nH]c(C(=O)N[C@H](CO)c3ccc(F)c(Cl)c3)c2)cc1Cl [II-73] | < 12 µM
CCNC(=O)CN(CC(=O)NCC)Cc1ccc(-c2cn[nH]c2-c2c[nH]c(C(=O)N[C@H](CO)c3ccc(F)c(Cl)c3)c2)cc1Cl [II-85] | < 12 µM
N[C@@H](CO)C(=O)NCc1ccc(-c2cn[nH]c2-c2c[nH]c(C(=O)N[C@H](CO)c3ccc(F)c(Cl)c3)c2)cc1Cl [II-75] | < 12 µM
N[C@@H](CO)C(=O)NCc1ccc(-c2cn[nH]c2-c2c[nH]c(C(=O)NC(CO)c3ccc(F)c(Cl)c3)c2)cc1Cl (stereo partly drawn) [II-15] | < 12 µM
CC(C)(C)OC(=O)N[C@H](CO)C(=O)NCc1ccc(-c2cn[nH]c2-c2c[nH]c(C(=O)NC(CO)c3ccc(F)c(Cl)c3)c2)cc1Cl (stereo partly drawn) [II-17] | < 12 µM
C[S+]([O-])CC(=O)NCc1ccc(-c2cn[nH]c2-c2c[nH]c(C(=O)NC(CO)c3ccc(F)c(Cl)c3)c2)cc1Cl (stereo not drawn) [II-6] | < 12 µM

Compound | IC50
CCNC(=O)CNCc1ccc(-c2cn[nH]c2-c2c[nH]c(C(=O)N[C@H](CO)c3ccc(F)c(Cl)c3)c2)cc1Cl [II-71] | < 12 µM
C[C@H](N)C(=O)NCc1ccc(-c2cn[nH]c2-c2c[nH]c(C(=O)N[C@H](CO)c3ccc(F)c(Cl)c3)c2)cc1Cl [II-69] | < 12 µM
NC(=O)CNCc1ccc(-c2cn[nH]c2-c2c[nH]c(C(=O)N[C@H](CO)c3ccc(F)c(Cl)c3)c2)cc1Cl [II-76] | < 12 µM
C[C@@H](O)[C@H](N)C(=O)NCc1ccc(-c2cn[nH]c2-c2c[nH]c(C(=O)N[C@H](CO)c3ccc(F)c(Cl)c3)c2)cc1Cl [II-77] | < 12 µM
CN(C)CC(=O)NCc1ccc(-c2cn[nH]c2-c2c[nH]c(C(=O)NC(CO)c3ccc(F)c(Cl)c3)c2)cc1Cl (stereo not drawn) [II-13] | < 12 µM
CC(C)NCc1ccc(-c2cn[nH]c2-c2c[nH]c(C(=O)N[C@H](CO)c3ccc(F)c(Cl)c3)c2)cc1Cl [II-70] | < 12 µM
CCOC(=O)CC(C)NCc1ccc(-c2cn[nH]c2-c2c[nH]c(C(=O)N[C@H](CO)c3ccc(F)c(Cl)c3)c2)cc1Cl (stereo partly drawn) [II-72] | < 12 µM
CCOC(=O)C(C)NCc1ccc(-c2cn[nH]c2-c2c[nH]c(C(=O)N[C@H](CO)c3ccc(F)c(Cl)c3)c2)cc1Cl (stereo partly drawn) [II-55] | < 12 µM
CCOC(=O)CN(CC(=O)OCC)Cc1ccc(-c2cn[nH]c2-c2c[nH]c(C(=O)N[C@H](CO)c3ccc(F)c(Cl)c3)c2)cc1Cl [II-84] | < 12 µM
CN(C)CCNCc1ccc(-c2cn[nH]c2-c2c[nH]c(C(=O)N[C@H](CO)c3ccc(F)c(Cl)c3)c2)cc1Cl [II-79] | < 12 µM
CCOC(=O)NCc1ccc(-c2cn[nH]c2-c2c[nH]c(C(=O)N[C@H](CO)c3ccc(F)c(Cl)c3)c2)cc1Cl [II-78] | < 12 µM
NC(=O)CN(CC(N)=O)Cc1ccc(-c2cn[nH]c2-c2c[nH]c(C(=O)N[C@H](CO)c3ccc(F)c(Cl)c3)c2)cc1Cl [II-74] | < 12 µM
CCCCNCc1ccc(-c2cn[nH]c2-c2c[nH]c(C(=O)NC(CO)c3ccc(F)c(Cl)c3)c2)cc1Cl (stereo not drawn) [II-7] | < 12 µM
CCOC(=O)CN(C)Cc1ccc(-c2cn[nH]c2-c2c[nH]c(C(=O)N[C@H](CO)c3ccc(F)c(Cl)c3)c2)cc1Cl [II-83] | < 12 µM
N[C@H](CO)C(=O)NCc1ccc(-c2cn[nH]c2-c2c[nH]c(C(=O)NC(CO)c3ccc(F)c(Cl)c3)c2)cc1Cl (stereo partly drawn) [II-18] | < 12 µM
CCN(CC)CCNCc1ccc(-c2cn[nH]c2-c2c[nH]c(C(=O)N[C@H](CO)c3ccc(F)c(Cl)c3)c2)cc1Cl [II-82] | < 12 µM
